Assay results: patent US20120058906A1
These are yes or no findings as the source states them, for the method shown. Some entries that bind do so weakly or less than the wild type.

The chains behind the UniProt entries cited, without tags or fusion partners. Where a name states a change or a piece, a line headed by the entry shows the natural chain unless it says otherwise.
UniProt Q9NR61: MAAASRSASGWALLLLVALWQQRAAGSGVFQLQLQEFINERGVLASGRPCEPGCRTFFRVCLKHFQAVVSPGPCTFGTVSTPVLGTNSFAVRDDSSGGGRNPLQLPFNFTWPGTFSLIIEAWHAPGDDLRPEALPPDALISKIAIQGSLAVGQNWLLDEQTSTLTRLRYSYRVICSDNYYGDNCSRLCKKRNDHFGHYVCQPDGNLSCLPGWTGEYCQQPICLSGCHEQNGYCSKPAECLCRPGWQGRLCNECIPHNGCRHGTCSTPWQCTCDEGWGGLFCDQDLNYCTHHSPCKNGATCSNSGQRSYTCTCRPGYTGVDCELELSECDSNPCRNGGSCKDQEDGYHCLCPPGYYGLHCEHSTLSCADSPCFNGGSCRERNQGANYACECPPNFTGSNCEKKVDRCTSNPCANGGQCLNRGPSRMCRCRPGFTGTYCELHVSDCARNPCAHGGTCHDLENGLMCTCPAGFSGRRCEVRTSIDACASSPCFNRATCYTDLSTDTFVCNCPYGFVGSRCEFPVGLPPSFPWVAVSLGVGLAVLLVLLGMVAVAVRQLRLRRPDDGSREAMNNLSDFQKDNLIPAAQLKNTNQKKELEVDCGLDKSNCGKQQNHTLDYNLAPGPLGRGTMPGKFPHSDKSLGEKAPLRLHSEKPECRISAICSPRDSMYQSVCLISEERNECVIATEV

Columns and labels:
[1] = target: Recombinant Human DLL4 (R&D Systems Cat#1506-D4/CF) (human) (UniProt Q9NR61); experiment: ECL (MSD) Fab titration; binding affinity estimated from the 50% binding signal
[2] = target: Recombinant Human DLL4 (R&D Systems Cat#1506-D4/CF) (human) (UniProt Q9NR61); experiment: MSD ECL screen of 960 Fab library; hit = signal/blank > 4
[3] = target: Recombinant Human DLL4 (R&D Systems Cat#1506-D4/CF) (human) (UniProt Q9NR61); experiment: ECL (MSD) multi-spot binding screen, 960 member Fab library; hit = signal to blank ratio greater than 4

Measured: binding

B1: Fab VH6-1_IGHD3-3*01_IGHJ4*01 & V4-3_IGLJ4*01 (Fab, V domains shown)
VH: QVQLQQSGPGLVKPSQTLSLTCAISGDSVSSNSAAWNWIRQSPSRGLEWLGRTYYRSKWYNDYAVSVKSRITINPDTSKNQFSLQLNSVTPEDTAVYYCAREYYDFWSGYYTDYFDYWGQGTLVTVSS
VL: QPVLTQPTSLSASPGASARLTCTLRSGINLGSYRIFWYQQKPESPPRYLLSYYSDSSKHQGSGVPSRFSGSKDASSNAGILVISGLQSEDEADYYCMIWHSSASFVFGGGTQLIIL
binds: all assays above
